## Primary screen of a compound library

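Whole-parasite assay of Trypanosoma brucei over 72 hours; the read-out is not stated. Concentration: 30 µM. Higher reads as stronger inhibition (inferred: compounds with an IC50 in retests scored well above the rest). Values scatter widely below zero; nearly all retest evidence comes from the higher of the two concentrations used. Of about 64,000 compounds tested this way, about 940 (1.5%) reached 50% or more in at least one test.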

Results are given as percent effect. The controls that fix the scale are not given in the record; negative values are as filed. This is an unselected part of the compounds tested.

| structure | Percent Effect |
|---|---|
| `O=C(c1coc(COc2cccc(F)c2)n1)N1CC[C@H](O)[C@@H](O)C1` | -3.763% |
| `O=C(O)c1coc(COc2cccc(F)c2)n1` | -14.46% |
| `Cc1ccc(N2CCC3(CCN(C(=O)c4ccsc4)CC3)CC2)nn1` | 20.14% |
| `CCNC(c1cccnc1)c1cc(C)cc(C)c1` (configuration not stated) | 4.949% |
| `[H][C@@]12CN(C(=O)c3ccncc3)C[C@]1([H])OCCN2Cc1csc(C)n1` | -105.7% |
| `Cc1csc(N2CCN(C(=O)CCCNc3ncccn3)CC2)n1` | -17.41% |
| `CCc1nncn1CCNC(=O)Nc1ccc(OC)c(C)c1` | -5.129% |
| `CCc1nccn1C1CCCN(C(=O)c2csc(COC)n2)C1` (configuration not stated) | 3.919% |
| `Cc1noc(C(C)C)c1C(=O)NS(=O)(=O)c1ccc(Cl)cc1` | 18.54% |
| `Cc1nccc(N2C[C@H](NC(=O)CNS(C)(=O)=O)[C@@H](C3CC3)C2)n1` | -1.151% |
| `OC(COCc1ccc(Cl)cc1)CN1CC(n2cccn2)C1` (configuration not stated) | -1.13% |
| `CSc1ccc(C(C(=O)O)N2CCC(C(=O)N3CCCC3)CC2)cc1` (configuration not stated) | -15.81% |
| `Cc1cc(C)nc(Nc2cc(C)nc(C3CCN(C(C)C)C3)n2)n1` (configuration not stated) | -17.09% |
| `CCOCC1CN(C(=O)N(C)C)Cc2nn(C)cc21` (configuration not stated) | -3.646% |
| `CCN(Cc1nc(-c2ccco2)no1)Cc1cccc2c1OCO2` | -8.334% |
| `CCC(C)N(Cc1cccnc1)Cc1cc2c(cc1Cl)OCO2` (configuration not stated) | -36.66% |
| `Cc1cc(C)c(C(=O)N(CCO)Cc2ccccc2F)c(=O)[nH]1` | -10.47% |
| `CC(=O)N1CCCn2c(nc(CNS(=O)(=O)C3CC3)cc2=O)C1` | -37.22% |
| `O=C(CCC1CCCN(S(=O)(=O)C2CC2)C1)Nc1ccc(Cl)cc1` (configuration not stated) | 17.41% |
| `CC(C)CN1C(=O)c2ccc(C(=O)NCCc3c[nH]cn3)cc2C1=O` | -31.74% |
| `Cc1cc2c(=O)n3c(nc2s1)CCN(C(=O)c1ccnn1C)CC3` | 11.82% |
| `O=C(Nc1ccccc1F)N1CCN(Cc2noc(C3CC3)n2)CC1` | 10.98% |
| `CC(NC(=O)Cc1cc2c(cc1Cl)OCCO2)c1ccncn1` (configuration not stated) | -24.86% |
| `Cc1ccc(NC(=O)NCC2(O)CCCC2)cc1C` | -17.8% |
| `CN(C(=O)c1ccco1)C1CCC(NC(=O)OC(C)(C)C)CC1` (configuration not stated) | -60.45% |
| `Cc1nc(CN2CCCC(NCc3ccc4c(c3)CCO4)C2)no1` (configuration not stated) | -31.82% |
| `O=S(=O)(CCCn1cncn1)Cc1cccc(F)c1` | -18.41% |
| `Cc1cn(CC(=O)NC2CCN(CC3CC3)CC2)c2ccccc12` | -23.94% |
| `N#Cc1ccc(OC2CCN(CC(=O)NCC(F)(F)F)CC2)cc1` | -464.3% |
| `CC(CN1CCC2(CC1)c1nc[nH]c1CCN2S(C)(=O)=O)C(F)(F)F` (configuration not stated) | 26.3% |
| `CCOc1ccc(OC2CCCN(c3cnn(C)c3)C2=O)cc1` (configuration not stated) | -20.73% |
| `O=C(O)C(F)(F)F.[H][C@@]12CN(Cc3csc(C)n3)C[C@]1([H])CN(C(=O)c1cccn1C)C2` | -8.984% |
| `CCc1nc(C2CCCN2C(=O)CCc2nc(C(C)(C)C)no2)no1` (configuration not stated) | -17.17% |
| `CCN1CC(CN(C)c2cc(C)nc(N)n2)Oc2ccccc21` (configuration not stated) | 98.13% |
| `CC(NCc1cn(CCC(N)=O)c2ccccc12)c1nncn1C` (configuration not stated) | -49.32% |
| `Cc1ccc(F)c(C(=O)N2C[C@@H](C(=O)O)[C@H](c3ccncc3)C2)c1Cl` | -19.54% |
| `COCC(=O)N1CCC2(CC1)c1ccccc1[C@@H](N1CCSCC1)[C@@H]2O` | -15.16% |
| `CCC(O)CN1CCN(C(=O)Cc2cc(Cl)ccc2OC)CC1` (configuration not stated) | 1.597% |
| `O=C(Nc1cccnc1N1CCSCC1)c1cc2c(s1)CCCCC2` | 14.55% |
| `CCc1nnsc1C(=O)NCC1CN(CC(C)C)CCO1` (configuration not stated) | -54.8% |
| `O=C(N1CCOCC1)n1cnc2ccccc21` | -2.512% |
| `[H][C@@]12COC[C@H](C(=O)N3CCOCC3)[C@]1([H])CN(C1CCCC1)C2` | -24.24% |
| `Cc1nccn1CCN1C(=O)CC2(CCCC2)CC1=O` | -30.79% |
| `CNc1cc(C(=O)N2CCCCC2CCn2ccnc2C)ccn1` (configuration not stated) | -17.8% |
| `O=C(c1ccccn1)N1CCC(S(=O)(=O)c2ccccc2)C1` (configuration not stated) | -49.6% |
| `COCC(=O)N1CCN(Cn2nc(C)c(Br)c2C)CC1` | -48.3% |
| `CCc1[nH]c(C2(N)CCCCC2)nc(=O)c1C` | -9.382% |
| `CCn1cnnc1CNC(=O)N1CCC(CN2CCCCCC2)CC1` | -9.077% |
| `CN1CCC2(CC1)C(=O)N(CC1CC1)c1ccccc12.O=C(O)C(F)(F)F` | 10.22% |
| `CCOCCC(=O)N1CC(=O)Nc2cc(Br)ccc21` | -10.97% |
| `c1ccc(-c2nnc3n2CCN(c2nc(C4CC4)ns2)C3)cc1` | -31% |
| `COCC(=O)N1CCC2(CC1)CC(N1CCN(C)CC1)CO2` (configuration not stated) | -27.79% |
| `COCCOc1ncccc1CNCc1c(C)nn(C)c1N(C)C` | 14.32% |
| `Cc1cc(C)nc(CN(C)C(=O)c2cccc(CCC(C)(C)O)c2)c1` | 6.07% |
| `CCn1cc(CN2CCCN(C(=O)c3ccn(C)c(=O)c3)CC2)cn1` | -35.9% |
| `O=C(O)C(F)(F)F.O=C(O)C(F)(F)F.[H][C@@]12COC[C@]1(COCC1CCOCC1)CN(Cc1ccccn1)C2` | -30.86% |
| `COc1cc(N2CCOC(c3ccc(F)cc3)C2)ncn1` (configuration not stated) | -72.58% |

Some entries from above, unchanged:

structure	Percent Effect
O=C(c1coc(COc2cccc(F)c2)n1)N1CC[C@H](O)[C@@H](O)C1	-3.763%
Cc1ccc(NC(=O)NCC2(O)CCCC2)cc1C	-17.8%
Cc1cc(C)c(C(=O)N(CCO)Cc2ccccc2F)c(=O)[nH]1	-10.47%
CCn1cnnc1CNC(=O)N1CCC(CN2CCCCCC2)CC1	-9.077%
CCn1cc(CN2CCCN(C(=O)c3ccn(C)c(=O)c3)CC2)cn1	-35.9%
O=C(O)C(F)(F)F.O=C(O)C(F)(F)F.[H][C@@]12COC[C@]1(COCC1CCOCC1)CN(Cc1ccccn1)C2	-30.86%

Measurements from “University of Dundee, Small-Polar-MMV Screening Library” (2021), ChEMBL document CHEMBL3988442.